Test system: Caco-2 cell monolayers
Details: pH 7.4, range over 12 inter-day experiments

Peff (×E-6 cm/sec) in pH 7.4 Caco-2, A B, Range (A to B): 0.69-1.80 ×E-6 cm/sec
Peff (×E-6 cm/sec) in pH 7.4 Caco-2, B A, Range (B to A): 1.69-2.68 ×E-6 cm/sec
SMILES: CC(C)NCC(O)COc1ccc(CC(N)=O)cc1 (centres unmarked) [Atenolol]

Source: patent US9868722B2, “Monocyclic pyrimidine/pyridine compounds as inhibitors of P97 complex” (Cleave Biosciences, Inc., priority 2013, dated 2018)
